# Whole data set: some 3,200 compounds, median “TSA(with NAD+) / Primary screening (TSA) / delta Tm (K)” near -0.04, cut for the highest 2% near 0.37. This is one part of the list.
# Chains of the proteins cited; added tags and fusions are not shown. Residues count along the entry.
# UniProt Q96EB6, 2-747 limits assumed: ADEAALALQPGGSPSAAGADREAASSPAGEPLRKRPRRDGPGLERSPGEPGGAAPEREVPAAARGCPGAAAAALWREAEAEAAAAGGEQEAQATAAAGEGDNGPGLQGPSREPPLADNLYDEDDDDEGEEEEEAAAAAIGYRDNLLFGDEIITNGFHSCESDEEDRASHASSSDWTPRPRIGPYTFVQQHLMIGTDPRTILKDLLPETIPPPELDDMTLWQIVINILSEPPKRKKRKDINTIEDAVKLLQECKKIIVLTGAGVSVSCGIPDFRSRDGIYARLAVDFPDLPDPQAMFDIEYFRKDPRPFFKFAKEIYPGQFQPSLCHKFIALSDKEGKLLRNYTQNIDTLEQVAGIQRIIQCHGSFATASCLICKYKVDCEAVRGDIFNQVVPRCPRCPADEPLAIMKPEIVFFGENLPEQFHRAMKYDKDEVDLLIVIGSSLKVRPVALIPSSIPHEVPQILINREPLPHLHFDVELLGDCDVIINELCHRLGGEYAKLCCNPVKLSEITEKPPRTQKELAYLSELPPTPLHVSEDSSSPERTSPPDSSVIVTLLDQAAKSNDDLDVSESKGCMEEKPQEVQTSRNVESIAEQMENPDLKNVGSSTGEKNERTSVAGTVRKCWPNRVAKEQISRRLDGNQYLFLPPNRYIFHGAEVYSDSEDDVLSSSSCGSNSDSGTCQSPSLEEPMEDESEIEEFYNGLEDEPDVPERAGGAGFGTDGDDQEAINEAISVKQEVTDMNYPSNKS
# Target: NAD-dependent deacetylase Sirtuin 1 (human, UniProt Q96EB6)
# Test: primary screen, delta tm
# Parameters: single well (n = 1, as 'the same TSA')
# Conditions: 10 µM
row,Compound,TSA(with NAD+) / Primary screening (TSA) / delta Tm (K)
1,O=C(c1cnc2ccc3[nH]ncc3c2c1)c1ccccc1O,0.06 K
2,COc1cc(CN(C)C(=O)COc2ccc3ccc(=O)oc3c2)ccc1OCc1ccccc1,0.17 K
3,CCc1ccc(CN(C)C(=O)c2cc(C)nc3ccccc23)cc1,0.16 K
4,Nc1nc(-c2ccc[nH]2)cs1,-0.14 K
5,COC(=O)c1c(N2C(=O)C=CC2=O)sc2c1CCCC2,-0.06 K
6,COc1ccc(S(=O)(=O)N2CCc3ccccc32)cc1C(=O)Nc1cccc(S(=O)(=O)NCc2ccco2)c1,0.25 K
7,Cc1sc2nc(CN3CCCC3)nc(N3CCC(C(N)=O)CC3)c2c1C,0.12 K
8,O=C1NC(=S)NC(=O)C1=Cc1c2oc(-c3ccccc3)cc(-c3ccccc3)c-2c2ccccc12,-0.03 K
9,CCN1CCN(C(=O)CCNC(=O)/C=C/c2ccc(OC)cc2)CC1,-0.05 K
10,O=C(O)c1ccc(NC(=O)C2CC2c2ccco2)cc1 (stereo not drawn),-0.13 K
11,CCc1nnc(N2CCC(n3cnc(C(N)=O)c3N)CC2)c(C#N)c1CC,-0.06 K
12,Cn1cc(S(=O)(=O)N2CCN(C(=O)CSCc3nc4ccccc4[nH]3)CC2)cc1C(N)=O,-0.03 K
13,Nc1ccn([C@@H]2O[C@H](CO)[C@@H](O)[C@@H]2O)c(=O)n1,0.09 K
14,O=C(O)c1ccc2[nH]c(=O)[nH]c2c1,-0.26 K
15,Cn1cc(CCC(=O)NCC(=O)O)c2ccccc21,-0.16 K
16,CCOC(=O)c1c(NC(=O)COC(=O)C23CC4CC(CC(Cl)(C4)C2)C3)sc(C(=O)N(CC)CC)c1C,-0.18 K
17,CCn1cc(C2CS(=O)CCN2c2ncnc3c2oc2ccccc23)cn1 (stereo not drawn),-0.19 K
18,CCC(NCc1cccc2cn[nH]c12)c1ccc2c(c1)OCCO2 (stereo not drawn),-0.23 K
19,COc1ccc(C(NC(=O)C(C)NC(=O)C23CC4CC(CC(C4)C2)C3)c2ccccc2)cc1 (stereo not drawn),-0.12 K
20,C/C=C/CCN,-0.12 K
21,CC(C)C(NC(N)=O)C(=O)Nc1ccc(CCO)cc1 (stereo not drawn),0.03 K
22,C#CCn1cnc2c(N)ncnc21,0.06 K
23,CC(OC(=O)c1ccc2c(c1)S(=O)(=O)c1ccccc1C2=O)C(=O)Nc1ncnc2[nH]cnc12 (stereo not drawn),0.06 K
24,C#CCNC(=O)Cc1c(C)nc2c(c1C)c(=O)[nH]n2C,-0.09 K

# An excerpt of these results, with tabs.
row	Compound	TSA(with NAD+) / Primary screening (TSA) / delta Tm (K)
1	O=C(c1cnc2ccc3[nH]ncc3c2c1)c1ccccc1O	0.06 K
4	Nc1nc(-c2ccc[nH]2)cs1	-0.14 K
10	O=C(O)c1ccc(NC(=O)C2CC2c2ccco2)cc1 (stereo not drawn)	-0.13 K
14	O=C(O)c1ccc2[nH]c(=O)[nH]c2c1	-0.26 K
15	Cn1cc(CCC(=O)NCC(=O)O)c2ccccc21	-0.16 K
16	CCOC(=O)c1c(NC(=O)COC(=O)C23CC4CC(CC(Cl)(C4)C2)C3)sc(C(=O)N(CC)CC)c1C	-0.18 K

# More records.

row,Compound,TSA(with NAD+) / Primary screening (TSA) / delta Tm (K)
1,O=C(CCCc1cccs1)NCc1nc2ccccc2[nH]1,-0.24 K
2,Cc1ccc(-c2nnc(S)n2C)cc1,-0.05 K
3,COc1ccc2[nH]cc(C3=CCN(C(=O)c4cc(C)no4)CC3)c2c1,-0.05 K
4,Cc1ccc(C2CC(c3ccc4c(c3)OCO4)=NN2S(C)(=O)=O)cc1 (stereo not drawn),-0.11 K
5,Cc1nc(S)sc1CC(=O)NC1CCCCC1C (stereo not drawn),-0.01 K
6,CN(CC1OCCc2ccccc21)C(=O)c1cccc(-n2ccnn2)c1 (stereo not drawn),-0.01 K
7,NCCSCC(=O)O,0.03 K
8,Cc1noc(-c2cccc(NC(=O)c3ccccc3-c3ncc(-c4ccccc4)o3)c2)n1,-0.06 K
9,COCC(C)Nc1ncnc2ccsc12 (stereo not drawn),-0.03 K
10,Cc1cc(NC(=O)CSc2nnc(-c3c[nH]c4ccccc34)n2Cc2ccco2)no1,0.03 K
11,COc1ccccc1CNC(=O)/C(=C/c1ccccc1)c1ccccc1,-0.09 K
12,O=C(Nc1ccc2nc[nH]c(=O)c2c1)c1ccn(-c2ccccc2)n1,0.12 K
13,O=C(CC(F)(F)F)Nc1cccc(F)c1,-0.08 K
14,CNc1cc(C)nc2c(-c3ccccc3)c(C(F)(F)F)nn12,-0.12 K
15,CCOC(=O)c1ccccc1NC(=O)COc1ccc(C(N)=O)cc1,-0.22 K
16,COc1ccc2c(C=C3C(=O)N(C)C(=O)N(C)C3=O)cccc2c1,0.16 K
17,Cc1c(NC(=O)c2cnc3ccccc3n2)c(=O)n(-c2ccccc2)n1C,-0.03 K
18,CCc1cc2c(N3CCC(C(N)=O)CC3)nc(C(C)C)nc2s1,0.01 K
19,CCOc1ccc2[nH]c(SCC(=O)N3CCCC(C(N)=O)C3)nc2c1 (stereo not drawn),-0.11 K
20,OC(CCc1ccccc1)CN1CCN(c2cncc3ccccc23)CC1 (stereo not drawn),0.06 K
21,Cc1cc(=O)c2c(C)nn(-c3cccc(Cl)c3)c2[nH]1,0.03 K
22,Cc1cc(C(=O)COC(=O)C23CC4CC(CC(O)(C4)C2)C3)c(C)n1-c1ccc2c(c1)OCO2,-0.02 K
23,COc1cc(CN(C)C(=O)c2ccc(CS(C)(=O)=O)cc2)ccc1OCc1ccccc1,-0.12 K
24,O=S(=O)(NC1CCCNC1)c1ccccc1Br (stereo not drawn),-0.09 K

row,Compound,TSA(with NAD+) / Primary screening (TSA) / delta Tm (K)
1,CO/N=C(/C)c1ccc2[nH]c(=O)[nH]c2c1,0.07 K
2,COc1ccc(CCNC(=O)COC(=O)CCc2ccc(S(=O)(=O)N3CCCCC3)cc2)cc1OC,-0.03 K
3,C/C(=N/Nc1cc(C(=O)O)ccc1Cl)c1ccc2ccccc2c1,0.16 K
4,NCCOCCCO,-0.13 K
5,Cc1ccc(N(C)S(=O)(=O)c2cccc(C(=O)Nc3ccc(C(N)=O)cc3)c2)cc1,0.46 K
6,O=C(N1CCc2ccccc2CC1)N1CC2CCCN2Cc2ccccc21 (stereo not drawn),-0.13 K
7,Cc1cc(/C=N/NC(C)(C)C)c(C)n1-c1cc(S(=O)(=O)N2CCOCC2)ccc1N1CCCC1,-0.03 K
8,O=C(c1ccc(O)cc1)C1CCN(c2ncnc3c2oc2ccccc23)CC1,-0.01 K
9,CC(=O)N1CCCc2cc(S(=O)(=O)Nc3cccc4c3CCCC4)ccc21,-0.08 K
10,CCCCOC(=O)c1ccc(NC(=O)COC(=O)CNC(=O)C23CC4CC(CC(C4)C2)C3)cc1,0.32 K
11,Cc1ccccc1NC(=O)COC(=O)c1ccccc1SCC(=O)NC12CC3CC(CC(C3)C1)C2,0.17 K
12,CCOC(=O)Nc1cccc(C(=O)NCc2ccc3c(c2)OCO3)c1,-0.12 K
13,CC(N)CF (stereo not drawn),-0.03 K
14,Cc1ccc(-c2nnc(S)n2CCC(=O)N2CCN(Cc3nc(-c4cccs4)no3)CC2)cc1,0.16 K
15,O=C(Nc1cccc(S(=O)(=O)NCc2ccco2)c1)c1cn(-c2ccccc2)nc1-c1ccccc1,0.21 K
16,Cc1ccc(N(CC(=O)NC23CC4CC(CC(C4)C2)C3)S(=O)(=O)c2ccc3c(c2)OCCO3)cc1,-0.11 K
17,COc1ccc(OC)c(CN(CC(=O)Nc2ccc(C(N)=O)cc2)C2CC2)c1,0.06 K
18,N#CCn1c(COC(=O)CO/N=C2\c3ccccc3C3C=CC=CC23)nc2ccccc2c1=O (stereo not drawn),0.06 K
19,O=C(Nc1ccc(Cl)cn1)C1CCN(c2nc(C3CC3)nc3sc4c(c23)CCCC4)CC1,-0.13 K
20,O=C(OCC(=O)C12CC3CC(CC(C3)C1)C2)[C@H](Cc1ccccc1)N1C(=O)c2ccccc2C1=O,-0.11 K
21,COS(=O)(=O)OC,-0.04 K
22,COc1ccc(SC(C)C(N)=O)cc1 (stereo not drawn),0.03 K
23,NC(=O)C1CCN(C(=O)c2c[nH]c3cc(Br)c(Br)cc23)CC1,0.06 K
24,COc1cc(CN(C)C(=O)c2ccc(-c3ccc(C(C)=O)cc3)o2)ccc1OCc1ccccc1,-0.18 K

row,Compound,TSA(with NAD+) / Primary screening (TSA) / delta Tm (K)
1,O=C(O)CN1CCN(Cc2ccccc2)C2(CCCCC2)C1,-0.02 K
2,CC1CC(C)n2nccc2N1C(=O)Cc1csc(-c2ccc(C(F)(F)F)cc2)n1 (stereo not drawn),-0.12 K
3,CN1CCN(c2ncnc3ccsc23)CC1,-0.13 K
4,Cc1cc(CCNc2ccc3nnnn3n2)c(C)n1-c1ccccc1,0.26 K
5,CC1CCCC(C)N1NC(=O)CCCN1C(=O)c2ccccc2C1=O (stereo not drawn),-0.33 K
6,O=C(Cc1c[nH]c2ccccc12)NCC1CCCN(Cc2cccs2)C1 (stereo not drawn),-0.09 K
7,NC(=O)C1CCN(C(=O)c2cc3cc(Br)ccc3[nH]2)C1 (stereo not drawn),-0.01 K
8,CC(OC(=O)c1cccc(S(=O)(=O)NCc2ccco2)c1)C(=O)c1ccc2c(c1)CCC2 (stereo not drawn),-0.01 K
9,COC[C@H](C)N,-0.01 K
10,COC(=O)c1ccc2c(=O)n(CCc3ccccc3)c(SCC(=O)N(C3CCCCC3)C3CCS(=O)(=O)C3)nc2c1 (stereo not drawn),0.16 K
11,O=C(CCc1c[nH]c2ccccc12)NNC(=O)CCN1CCN(c2ccccc2)CC1,0.06 K
12,O=C(/C=C/c1ccco1)C1=C(O)C(=O)N(CCCN2CCOCC2)C1c1ccco1 (stereo not drawn),-0.08 K
13,Cc1ccc(CNC(=O)C2CSCN2)c(O)c1 (stereo not drawn),-0.05 K
14,COc1ccc(C2C(C(=O)/C=C/c3ccco3)=C(O)C(=O)N2CCCN2CCOCC2)cc1OC (stereo not drawn),0.07 K
15,Cc1csc(=O)n1CCC(=O)N1CCC(CC(N)=O)CC1,0.06 K
16,NC(=O)c1cccc(NC(=O)c2cc3c(s2)-c2ccccc2CC3)c1,0.88 K
17,N#Cc1cc(Br)ccc1NCC1(CCO)CCOC1 (stereo not drawn),-0.13 K
18,CCNc1ncnc2c1cnn2-c1ccccc1,0.25 K
19,O=c1cc(NCC2(c3ccccc3)CCC2)nc2ccccn12,-0.11 K
20,O=C(O)Cn1c(S)nc2ccccc2c1=O,-0.15 K
21,COc1ccc(C2C(C(=O)c3ccc(C)cc3)=C(O)C(=O)N2CCCN2CCOCC2)cc1OC (stereo not drawn),0.02 K

# Reference: paper PMC6925144, “A prospective compound screening contest identified broader inhibitors for Sirtuin 1” (Scientific Reports, 2019)
